Measurements: PubChem BioAssay AID2685 (National Center for Advancing Translational Sciences (NCATS), 2010)
This is one part of the list. Further columns of the screen follow, without active or inactive calls. Compounds called inactive in the main read-out are mostly missing here. Words in brackets tell the shape of the fitted curve; partial curves, single points and poor fits give uncertain potencies.

Test: qHTS Assay for Lipid Storage Modulators in Drosophila S3 Cells;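 for cell number change: cells counted by Cell Tracker Red CMTPX staining in the red channel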
Settings: BODIPY lipid droplet fluorescence, 18-24 h; for cell number change: measured here: cell count max response, cells fed with added oleic acid
Summary of the method: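 Laser-scanning cytometry quantifies lipid droplet accumulation (500–530 nm total intensity; droplet/cell object ratio) in oleic acid-fed (400 uM added) Drosophila S3 cells treated with a concentration series. 20 uM Triacsin C defined 100% inhibition.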

[1] = measured here: lipid fluorescence (Fed channel) AC50, cells fed with added oleic acid
[2] = measured here: cell number channel AC50, cells fed with added oleic acid

Row | Compound | cell number change | AC50 [1] | AC50 [2]
1 | Cc1oc2cc3oc(=O)c(CC(=O)NCC(=O)N[C@@H](C(=O)O)c4ccccc4)c(C)c3cc2c1C | -3.08% | 1.64 µM [falling, partial curve, poor fit] | –
2 | CC(OC(=O)Cc1ccsc1)C(=O)Nc1ccc(Cl)cn1 (configuration not stated) | – | 6.51 µM [falling, single point] | –
3 | CCCc1nc2c(=O)n(C)c(=O)nc-2n(C)n1 | -58.3% | 0.058 µM [falling, full curve, poor fit] | –
4 | Cc1ccc(C(=O)CCS(=O)(=O)c2ccc(Cl)cc2)cc1 | 4.27% | 0.282 µM [falling, full curve, poor fit] | –
5 | CCOc1cc(/C=N/NS(=O)(=O)c2ccc(OC)cc2)ccc1OCCN1CCOCC1 | 12.8% | – | –
6 | COc1cc2ccccc2cc1C(=O)NC1CCCCC1 | -14.4% | 0.231 µM [falling, full curve, poor fit] | –
7 | Clc1cccc(-c2nnc3n2CCCCC3)c1 | -17.9% | – | 2.06 µM [rising, partial curve, poor fit]
8 | Cc1ccccc1NC(=S)N(CCN1CCOCC1)Cc1ccccc1F | -11.1% | – | –
9 | Cc1cc(Cl)ccc1OCCCC(=O)OCC(N)=O | -42.5% | – | 6.51 µM [falling, single point]
10 | Cc1cc(C)c2[nH]c(=O)c(C(c3nnnn3C(C)(C)C)N3CCN(C(=O)c4ccco4)CC3)cc2c1 (configuration not stated) | 32.9% | 3.26 µM [rising, single point] | 9.2 µM [rising, partial curve]
11 | COc1ccc(NC2=NC(=S)N(c3ccccc3C)C23CCCCC3)cc1 | 4.25% | 0.13 µM [falling, full curve, poor fit] | –
12 | Cc1cc(OCC(=O)OCC(=O)NC2CCCC2)ccc1Cl | 30.6% | 23.1 µM [rising, single point] | 29.1 µM [rising, single point]
13 | Cc1scc(C(=O)N/N=C/c2ccc([N+](=O)[O-])o2)c1C | -48.8% | 20.6 µM [falling, partial curve] | 14.6 µM [falling, partial curve]
14 | CC(C)CNC(=O)C(=O)NCC(c1ccc2c(c1)OCO2)N1CCOCC1 (configuration not stated) | -16.7% | 29.1 µM [rising, single point] | –
15 | COc1ccccc1CN1CCCC(CN(CCN(C)C)C(=O)c2ccc(C)cc2)C1 (configuration not stated) | 13.2% | – | –
16 | c1ccc(-c2nc(NCCCN3CCOCC3)c3ccccc3n2)cc1 | 110% | 5.17 µM [rising, partial curve] | –
17 | Cc1nc(C)c(C(=O)Nc2cccc(C)c2C)o1 | 6.54% | 9.2 µM [rising, partial curve] | –
18 | Cn1c(C(=O)c2ccccc2)nc2ccccc21 | -1.39% | 29.1 µM [falling, single point] | –
19 | Cc1ccc(-c2nc3cccnc3s2)cc1NC(=O)C1c2ccccc2Oc2ccccc21 | 4.34% | 29.1 µM [falling, single point] | –

Molecules from the list above that have a thiophene ring, fused or not (2):
Row | Compound | cell number change | AC50 [1] | AC50 [2]
2 | CC(OC(=O)Cc1ccsc1)C(=O)Nc1ccc(Cl)cn1 (configuration not stated) | – | 6.51 µM [falling, single point] | –
13 | Cc1scc(C(=O)N/N=C/c2ccc([N+](=O)[O-])o2)c1C | -48.8% | 20.6 µM [falling, partial curve] | 14.6 µM [falling, partial curve]

The listing continues:

Row | Compound | cell number change | AC50 [1] | AC50 [2]
20 | CCC1(c2ccccc2)NC(=O)N(CC(=O)Nc2cc(S(=O)(=O)N3CCCCC3)ccc2N(C)C)C1=O (configuration not stated) | -13.7% | – | –
21 | O=C(O)c1cc2ncc(CCO)cn2n1 | -11.2% | – | 0.146 µM [falling, full curve, poor fit]
22 | S=c1nc(-c2ccccc2Cl)[nH][nH]1 | 11.1% | 0.731 µM [falling, single point] | –
23 | CCOc1ccc(CCNC(=O)CN2C(=O)NC(CCSC)C2=O)cc1OCC (configuration not stated) | -43.4% | 20.6 µM [falling, partial curve] | 0.116 µM [falling, full curve, poor fit]
24 | CCOC(=O)c1ccc2nc(NC(NC(C)=O)(C(=O)OC)C(F)(F)F)sc2c1 (configuration not stated) | -23.8% | 0.82 µM [falling, full curve] | –
25 | CSc1nsc(SCC(=O)Nc2ccc3c(c2)OCCO3)n1 | 22.5% | 2.59 µM [rising, partial curve] | –
26 | CC1CC(C)CN(CC(=O)c2c[nH]c3ccccc23)C1 (configuration not stated) | 32.4% | 20.6 µM [rising, single point] | 20.6 µM [rising, single point]
27 | Cc1ccc(C(=O)NC2CCN(C(=O)Nc3ccccc3)CC2)cc1 | 26.2% | 29.1 µM [rising, single point] | –
28 | Cc1cccc(C)c1OCC(=O)Nc1c(C)nn(C)c1C | 19% | – | 3.26 µM [rising, single point]
29 | CCOC(=O)N1CCN(c2nc3ccc(C)cc3n3cnnc23)CC1 | 2.78% | 6.51 µM [rising, single point] | –
30 | Cc1nn(-c2ccccc2)c(=S)n1-c1ccccc1 | – | 25.9 µM [falling, partial curve] | –
31 | O=C(/C=C/c1ccccc1Cl)Nc1cccnc1 | -15.1% | 29.1 µM [falling, single point] | –
32 | CCC(C(=O)Nc1cc(Cl)ccc1OC)c1ccccc1 (configuration not stated) | 33.6% | 13 µM [rising, partial curve] | 8.2 µM [rising, partial curve]
33 | Cc1cc(C)nc(SCC(=O)N/N=C/c2cccnc2)n1 | 4.34% | 0.13 µM [falling, full curve, poor fit] | –
34 | COc1cccc(CCNC(=O)c2cccc(NC(=O)C3=C(C)OCCS3)c2)c1 | -14.3% | 13 µM [falling, partial curve] | –
35 | O=C(CCn1cnnn1)Nc1ccc(F)cc1 | -36.6% | 2.06 µM [falling, full curve, poor fit] | 1.84 µM [falling, full curve, poor fit]
36 | COc1c(F)c(F)c(C(=O)Nc2ccc3oc(-c4ccncc4)nc3c2)c(F)c1F | 16.4% | 0.13 µM [rising, full curve, poor fit] | –
37 | CC(C)CCN1CCN(CCCc2ccccc2)CC1CCO (configuration not stated) | -1.76% | 0.00461 µM [falling, full curve, poor fit] | –
38 | COc1cccc(S(=O)(=O)NCc2ccc(C(=O)N3CCN(c4ccccc4)CC3)cc2)c1 | -18.8% | 0.00461 µM [falling, full curve, poor fit] | –
